Assay [1] deals with T1, full-length Kindlin-2 (expression plasmid, COS-7 cells) (UniProt Q8CIB5).
T1 sequence: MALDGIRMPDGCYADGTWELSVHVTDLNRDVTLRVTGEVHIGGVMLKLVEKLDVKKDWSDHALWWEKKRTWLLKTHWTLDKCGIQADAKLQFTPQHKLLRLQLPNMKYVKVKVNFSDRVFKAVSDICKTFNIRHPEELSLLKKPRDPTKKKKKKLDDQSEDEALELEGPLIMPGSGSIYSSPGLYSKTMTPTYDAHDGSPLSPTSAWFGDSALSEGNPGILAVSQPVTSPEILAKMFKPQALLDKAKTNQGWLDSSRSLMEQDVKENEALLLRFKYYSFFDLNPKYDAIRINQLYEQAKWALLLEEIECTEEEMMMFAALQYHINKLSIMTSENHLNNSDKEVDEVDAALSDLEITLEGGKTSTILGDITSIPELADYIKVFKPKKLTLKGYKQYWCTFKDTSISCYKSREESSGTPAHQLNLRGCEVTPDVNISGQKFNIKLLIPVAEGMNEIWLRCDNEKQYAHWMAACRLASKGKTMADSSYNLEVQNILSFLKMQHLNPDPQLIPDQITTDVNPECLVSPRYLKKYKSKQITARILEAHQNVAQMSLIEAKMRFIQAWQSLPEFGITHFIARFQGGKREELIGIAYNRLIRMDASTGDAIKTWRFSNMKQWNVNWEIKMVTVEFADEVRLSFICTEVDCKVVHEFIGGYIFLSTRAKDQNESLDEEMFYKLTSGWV
Put plainly: co-IP; COS-7 cells co-transfected with Flag-tagged PTH1R cytoplasmic constructs and full-length Kindlin-2; extracts precipitated with Kindlin-2 antibody, blot with Flag and Kindlin-2 antibodies; IP lysis buffer pH 7.4, 0.15 M NaCl, 1% NP-40.

Sequences of proteins named here, by UniProt entry; tags and fusion partners are left off. Residues count along the entry.
UniProt P41593, residues 464-591: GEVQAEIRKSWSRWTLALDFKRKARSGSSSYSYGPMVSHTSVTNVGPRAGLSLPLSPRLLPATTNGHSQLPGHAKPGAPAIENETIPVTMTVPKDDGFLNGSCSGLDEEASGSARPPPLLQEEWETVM
UniProt P63094: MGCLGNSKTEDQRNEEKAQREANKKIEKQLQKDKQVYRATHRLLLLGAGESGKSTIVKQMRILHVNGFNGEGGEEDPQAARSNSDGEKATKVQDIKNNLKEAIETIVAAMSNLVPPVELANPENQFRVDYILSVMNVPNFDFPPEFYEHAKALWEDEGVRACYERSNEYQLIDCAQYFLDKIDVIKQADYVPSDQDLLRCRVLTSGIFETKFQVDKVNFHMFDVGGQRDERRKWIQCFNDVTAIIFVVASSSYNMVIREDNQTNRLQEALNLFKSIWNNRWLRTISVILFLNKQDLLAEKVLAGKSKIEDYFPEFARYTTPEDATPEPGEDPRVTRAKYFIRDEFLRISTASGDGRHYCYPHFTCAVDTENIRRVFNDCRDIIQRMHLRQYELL

The target of assay [2] is T2, Kindlin-2 (endogenous, MC-4 osteoblastic cells) (mouse (endogenous in MC-4)) (UniProt Q8CIB5).
T2 sequence: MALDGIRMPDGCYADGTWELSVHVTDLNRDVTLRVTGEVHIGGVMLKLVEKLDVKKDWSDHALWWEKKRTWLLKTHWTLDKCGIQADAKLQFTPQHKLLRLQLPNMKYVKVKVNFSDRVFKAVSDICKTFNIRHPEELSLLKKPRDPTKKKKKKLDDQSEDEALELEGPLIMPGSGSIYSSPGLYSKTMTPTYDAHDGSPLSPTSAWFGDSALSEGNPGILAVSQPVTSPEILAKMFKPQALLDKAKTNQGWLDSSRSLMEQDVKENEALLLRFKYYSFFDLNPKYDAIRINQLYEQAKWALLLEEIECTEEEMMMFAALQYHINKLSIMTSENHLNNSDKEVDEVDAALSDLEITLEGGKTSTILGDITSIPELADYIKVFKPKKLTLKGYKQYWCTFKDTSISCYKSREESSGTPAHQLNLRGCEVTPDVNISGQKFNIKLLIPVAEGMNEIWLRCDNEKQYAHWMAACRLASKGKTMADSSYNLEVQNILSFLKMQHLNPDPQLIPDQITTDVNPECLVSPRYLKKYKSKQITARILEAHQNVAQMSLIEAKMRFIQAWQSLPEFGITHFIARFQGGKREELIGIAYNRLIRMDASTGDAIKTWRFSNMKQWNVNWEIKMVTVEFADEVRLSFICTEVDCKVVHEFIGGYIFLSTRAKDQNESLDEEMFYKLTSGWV
Put plainly: co-IP; endogenous proteins; whole-cell extracts of MC-4 cells incubated with Kindlin-2 antibody or IgG, Protein A/G magnetic beads, western blotting; IP lysis buffer pH 7.4, 0.025 M Tris, 0.15 M NaCl, 0.001 M EDTA, 1% NP-40, 5% glycerol. A general note: Immunoblotting shows a protein as a band on a membrane.

Assay [3] has as its target Flag-tagged 128-aa C-terminal cytoplasmic domain of PTH1R (mouse) (UniProt P41593). Put plainly: co-IP; COS-7 cells co-transfected with Flag-PTH1R (128 aa) and full-length Kindlin-2; extracts precipitated with Flag antibody, blot for Kindlin-2; IP lysis buffer pH 7.4, 0.15 M NaCl, 1% NP-40.

Results are given in words; binding and its absence hold for the method and conditions named. Binding seen in cells or lysates may run through a third protein. Some results given as binding are weak or reduced against the parent protein; the word gives no strength.

As for “Flag-tagged 128-aa C-terminal cytoplasmic domain of PTH1R (from UniProt P41593 464-591) (domain or fragment)”, the binding result in assay [1] was “binds”.

On to “Gsα, the stimulatory subunit of G protein (endogenous, MC-4 osteoblastic cells) (from UniProt P63094 1-394)”, for which the binding result in assay [2] was “binds”.

B1: full-length Kindlin-2 (expression plasmid, COS-7 cells) (protein, UniProt Q8CIB5 1-680)
chain: MALDGIRMPDGCYADGTWELSVHVTDLNRDVTLRVTGEVHIGGVMLKLVEKLDVKKDWSDHALWWEKKRTWLLKTHWTLDKCGIQADAKLQFTPQHKLLRLQLPNMKYVKVKVNFSDRVFKAVSDICKTFNIRHPEELSLLKKPRDPTKKKKKKLDDQSEDEALELEGPLIMPGSGSIYSSPGLYSKTMTPTYDAHDGSPLSPTSAWFGDSALSEGNPGILAVSQPVTSPEILAKMFKPQALLDKAKTNQGWLDSSRSLMEQDVKENEALLLRFKYYSFFDLNPKYDAIRINQLYEQAKWALLLEEIECTEEEMMMFAALQYHINKLSIMTSENHLNNSDKEVDEVDAALSDLEITLEGGKTSTILGDITSIPELADYIKVFKPKKLTLKGYKQYWCTFKDTSISCYKSREESSGTPAHQLNLRGCEVTPDVNISGQKFNIKLLIPVAEGMNEIWLRCDNEKQYAHWMAACRLASKGKTMADSSYNLEVQNILSFLKMQHLNPDPQLIPDQITTDVNPECLVSPRYLKKYKSKQITARILEAHQNVAQMSLIEAKMRFIQAWQSLPEFGITHFIARFQGGKREELIGIAYNRLIRMDASTGDAIKTWRFSNMKQWNVNWEIKMVTVEFADEVRLSFICTEVDCKVVHEFIGGYIFLSTRAKDQNESLDEEMFYKLTSGWV
Turning to B1, in assay [3], the binding entry is reported as “binds”.

The values above are taken from article PMC7762753.
